From publication PMC12318824
Results are given in words; binding and its absence hold for the method and conditions named. In cells and extracts the contact can be indirect. Some entries that bind do so weakly or less than the wild type.

Protein sequences, listed by entry. Tags and fused reporters are not part of them. Residues count along the entry.
UniProt P04233: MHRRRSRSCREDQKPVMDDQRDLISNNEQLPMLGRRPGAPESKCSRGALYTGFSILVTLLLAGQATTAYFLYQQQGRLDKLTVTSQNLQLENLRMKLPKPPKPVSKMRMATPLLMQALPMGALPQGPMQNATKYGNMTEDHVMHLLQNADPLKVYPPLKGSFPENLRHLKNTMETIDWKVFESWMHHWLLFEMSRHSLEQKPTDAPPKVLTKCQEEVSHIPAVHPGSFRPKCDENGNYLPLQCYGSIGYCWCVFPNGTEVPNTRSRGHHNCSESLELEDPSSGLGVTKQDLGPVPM
UniProt P16070, residues 21-742: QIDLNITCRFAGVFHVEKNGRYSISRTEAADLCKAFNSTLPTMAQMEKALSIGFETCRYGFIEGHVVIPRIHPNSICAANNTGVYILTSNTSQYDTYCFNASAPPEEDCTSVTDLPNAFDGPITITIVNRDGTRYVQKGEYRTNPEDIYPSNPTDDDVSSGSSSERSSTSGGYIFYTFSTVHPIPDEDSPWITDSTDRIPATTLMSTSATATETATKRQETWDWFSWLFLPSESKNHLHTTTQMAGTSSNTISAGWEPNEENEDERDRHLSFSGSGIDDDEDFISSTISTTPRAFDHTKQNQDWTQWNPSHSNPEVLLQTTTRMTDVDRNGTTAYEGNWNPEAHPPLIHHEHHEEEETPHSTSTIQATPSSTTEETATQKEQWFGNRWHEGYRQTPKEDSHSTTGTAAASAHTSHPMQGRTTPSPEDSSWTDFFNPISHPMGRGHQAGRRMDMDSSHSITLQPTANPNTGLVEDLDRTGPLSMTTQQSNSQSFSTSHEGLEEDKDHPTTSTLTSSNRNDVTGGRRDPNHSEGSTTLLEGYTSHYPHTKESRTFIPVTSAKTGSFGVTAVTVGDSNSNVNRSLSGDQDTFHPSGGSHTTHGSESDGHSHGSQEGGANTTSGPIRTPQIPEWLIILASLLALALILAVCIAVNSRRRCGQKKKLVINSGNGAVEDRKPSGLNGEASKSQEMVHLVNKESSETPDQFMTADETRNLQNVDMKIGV

Target: CD74 (human (endogenous in CD8+NKG7+ T cells)) (UniProt P04233)
Test: co-IP; co-immunoprecipitation of CD74 and CD44 in CD8+NKG7+ T cells; bait and conditions not told

binding: binds
Substance: CD44 (from UniProt P16070 21-742)
